# Experimental data: PubChem BioAssay AID652272 (Drosophila RNAi Screening Center, 2013)
# Purpose: 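Finding fly genes that regulate Hedgehog signal transduction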 (primary screen)
# Cell system: Drosophila clone 8 (Cl8) cells
# Knock-down reagent: long dsRNA against Drosophila genes
# Measured: 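Plate reader light from a firefly reporter under a ptc promoter fragment that responds to Hedgehog, with Renilla light as transfection reference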
# Direction: firefly Hh reporter signal: higher = more ptc reporter light; Renilla reference signal: higher = more Renilla control light
# Rule for the call: 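Hit when the z-score averaged over two replicates is under -2 or over +3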
# Meaning of the calls: active = hit: reporter lowered or raised; inactive = not a hit
# The screen tested about 21,000 reagents; shown is an unselected part of those with a known target gene and a result. Over the whole deposit, 503 (2.4%) got an active call. 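Raw plate light values, not normalised; calls rest on replicate z-scores that were not deposited; hits include reporter decreases as well as increases.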 Unmarked entries are inactive. Names joined by + are all predicted targets of the reagent. Not given: the amount of reagent, the time to read-out.
gene,DRSC id,"firefly Hh reporter signal, replicate 1","firefly Hh reporter signal, replicate 2","firefly Hh reporter signal, replicate 3","Renilla reference signal, replicate 1","Renilla reference signal, replicate 2"
CG16926,DRSC06637,81197,72581,,3638,3155
CG4768,DRSC19917,4.75e5,1.43e5,1.31e5,35304,3362
CG15888,DRSC15125,94343,55632,,3568,1683
Tab2,DRSC07481,83714,59354,,1836,3900
CG13531,DRSC04173,96163,64428,,2312,5604
CG13492,DRSC04137,67397,44288,,2148,4273
CG5039,DRSC15703,6.99e5,1.64e5,,37814,5371
RpS3A,DRSC17168,65305 (active),28999,,5159,1923
fal,DRSC11087,1.07e5,74707,,4480,2999
CG15764,DRSC18070,68108,1.71e5,,2279,6461
Gs1l,DRSC00754,66114,41321,,2038,4848
HemK2 + Snapin,DRSC00736,1.06e5,62649,,4528,2450
HemK2 + Snapin,DRSC00737,1.34e5,94237,,3008,2304
CG17127,DRSC02581,1.37e5,65625,,3452,6528
Krn,DRSC11202,80592,,,3884,2141
CG16952,DRSC19759,55529,10540,,1852,432
CG14658,DRSC12244,50508,78000,,1220,2776
pelo,DRSC03588,63948,47542,,2672,2096
CG14949,DRSC08408,76389,57060,,2564,4256
E(spl)m8-HLH,DRSC16654,5.63e5,1.14e5,,33121,3082
CG15357,DRSC00387,73435,1.00e5,,1712,2195
CG13028,DRSC09908,1.49e5,,,7411,4328
Or13a,DRSC20265,56976,1.70e5,,1505,7027
CG10962,DRSC18421,56549,97505,,1533,2204
Alg11,DRSC11647,1.57e5,1.77e5,,5597,6388
PIP82,DRSC18694,69915,1.51e5,,2020,6472
CG43345 + CG43346,DRSC03164,96022,1.42e5,,4048,4812
E(Pc),DRSC05281,67210,1.30e5,,2373,7712
E(Pc),DRSC07408,57577 (active),34886,,2154,3961
asRNA:CR43426,DRSC11587,2.54e5,,,5014,
CG13376,DRSC17901,1.43e5,3.33e5,,3970,12392
CG12464,DRSC06156,62873,51924,,1545,4076
CG14102,DRSC10103,55209,74417,,2201,2157
CG34227,DRSC06788,1.06e5,49673,,2517,3520
CG34227,DRSC07034,1.01e5,62451,,2770,4914
CG40198,DRSC21068,4.97e5,2.22e5,,30475,5241
lncRNA:CR43334,DRSC07894,1.33e5,2.51e5,,3690,11266
lncRNA:CR43334,DRSC07895,82876,1.81e5,,2281,7164
jet,DRSC03116,64953,41830,,2886,1873
Cad96Cb,DRSC14243,5.02e5,88469,,21168,6291
Cad96Cb,DRSC14665,6.08e5,92546,,33248,24352
Jhbp12,DRSC14621,5.07e5,82058,,25501,2534
lncRNA:CR32368,DRSC08899,99138,1.89e5,,2773,8897
Rdl,DRSC08967,1.58e5,2.65e5,,4587,10291
Rdl,DRSC11264,1.46e5,65764,,5693,2688
Srp68,DRSC10475,90252,67235,,4170,3180
SmydA-5,DRSC04867,75021,70035,,1353,5190
RSG7,DRSC20274,1.20e5,3.13e5,,4300,12393
TotB,DRSC15842,5.64e5,89575,,29210,2096
Np,DRSC06089,92049,71018,,2450,6784
Np,DRSC07094,1.35e5,80893,,2485,6568
Gr36c,DRSC02437,91565,50241,,2224,4425
CG6726,DRSC16101,4.55e5,75476,,22901,2408
Tmep,DRSC08215,82484,48609,,4506,2864
Hsepi,DRSC04986,94736,63586,,2300,6048
Dlc90F,DRSC16649,92042,71461,,4141,3305
CR42745 (retired record),DRSC13756,57478,1.93e5,,14704,3681

8 entries from above, showing only “firefly Hh reporter signal, replicate 1”:
asRNA:CR43426 [DRSC11587]	2.54e5
CG13376 [DRSC17901]	1.43e5
CG12464 [DRSC06156]	62873
CG14102 [DRSC10103]	55209
CG34227 [DRSC06788]	1.06e5
CG34227 [DRSC07034]	1.01e5
CG40198 [DRSC21068]	4.97e5
lncRNA:CR43334 [DRSC07894]	1.33e5
